# Measurements published in the supplement of paper PMC8728848.
# This is one part of the list.
# Experiments:
# Assay in all cases: glycan array binding signal (z-score within array); higher = stronger binding
# Conditions in all cases: glycan notation: IUPAC condensed, linker removed
# [1] = molecular target: Man(a1-3)[Man(a1-6)]Man(b1-4)GlcNAc(b1-4)GlcNAc
# Outline: (§1)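 The Consortium for Functional Glycomics database supplied 3228 glycan arrays, of which those lacking an available protein sequence were dropped. The binding signal, a within-array Z-score, was averaged across arrays of the same protein sequence and across linkers. Negative scores can be read as non-binding.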
# [2] = molecular target: Man(b1-4)GlcNAc
# Outline: as §1
# [3] = molecular target: Neu5Ac(a2-3)Gal
# Outline: as §1
# [4] = molecular target: Neu5Ac(a2-3)Gal(b1-3)GalNAc
# Outline: as §1
# [5] = molecular target: Neu5Ac(a2-3)Gal(b1-3)GalNAc(b1-3)Gal(a1-4)Gal(b1-4)Glc
# Outline: as §1
# [6] = molecular target: Neu5Ac(a2-3)Gal(b1-3)GalNAc(b1-3)Gal(b1-4)GlcNAc
# Outline: as §1
# [7] = molecular target: Neu5Ac(a2-3)Gal(b1-3)GalNAc(b1-4)[Neu5Ac(a2-3)]Gal(b1-4)Glc
# Outline: as §1
# [8] = molecular target: Neu5Ac(a2-3)Gal(b1-3)GalNAc6S
# Outline: as §1
# [9] = molecular target: Neu5Ac(a2-3)Gal(b1-3)GlcNAc
# Outline: as §1
# [10] = molecular target: Neu5Ac(a2-3)Gal(b1-3)GlcNAc(b1-3)Gal(b1-3)GlcNAc
# Outline: as §1
# [11] = molecular target: Neu5Ac(a2-3)Gal(b1-3)GlcNAc6S
# Outline: as §1
# [12] = molecular target: Neu5Ac(a2-3)Gal(b1-3)[Fuc(a1-4)]GlcNAc
# Outline: as §1
# [13] = molecular target: Neu5Ac(a2-3)Gal(b1-3)[Fuc(a1-4)]GlcNAc(b1-3)Gal(b1-4)[Fuc(a1-3)]GlcNAc
# Outline: as §1
# [14] = molecular target: Neu5Ac(a2-3)Gal(b1-3)[Neu5Ac(a2-3)Gal(b1-4)]GlcNAc
# Outline: as §1
# [15] = molecular target: Neu5Ac(a2-3)Gal(b1-3)[Neu5Ac(a2-6)]GalNAc
# Outline: as §1
# [16] = molecular target: Neu5Ac(a2-3)Gal(b1-4)Glc
# Outline: as §1
# [17] = molecular target: Neu5Ac(a2-3)Gal(b1-4)GlcNAc
# Outline: as §1
# [18] = molecular target: Neu5Ac(a2-3)Gal(b1-4)GlcNAc(b1-3)Gal(b1-3)GlcNAc
# Outline: as §1
# [19] = molecular target: Neu5Ac(a2-3)Gal(b1-4)GlcNAc(b1-3)Gal(b1-4)GlcNAc
# Outline: as §1
# [20] = molecular target: Neu5Ac(a2-3)Gal(b1-4)GlcNAc(b1-3)Gal(b1-4)GlcNAc(b1-3)Gal(b1-4)GlcNAc
# Outline: as §1
# [21] = molecular target: Neu5Ac(a2-3)Gal(b1-4)GlcNAc(b1-3)Gal(b1-4)[Fuc(a1-3)]GlcNAc
# Outline: as §1
# [22] = molecular target: Neu5Ac(a2-3)Gal(b1-4)GlcNAc(b1-6)[Gal(b1-3)]GalNAc
# Outline: as §1
# [23] = molecular target: Neu5Ac(a2-3)Gal(b1-4)GlcNAc6S
# Outline: as §1
# [24] = molecular target: Neu5Ac(a2-3)Gal(b1-4)[Fuc(a1-3)]GlcNAc
# Outline: as §1
# [25] = molecular target: Neu5Ac(a2-3)Gal(b1-4)[Fuc(a1-3)]GlcNAc(b1-3)Gal
# Outline: as §1
# [26] = molecular target: Neu5Ac(a2-3)Gal(b1-4)[Fuc(a1-3)]GlcNAc(b1-3)Gal(b1-4)GlcNAc
# Outline: as §1
# [27] = molecular target: Neu5Ac(a2-3)Gal(b1-4)[Fuc(a1-3)]GlcNAc(b1-3)Gal(b1-4)[Fuc(a1-3)]GlcNAc(b1-3)Gal(b1-4)[Fuc(a1-3)]GlcNAc
# Outline: as §1
# [28] = molecular target: Neu5Ac(a2-3)Gal(b1-4)[Fuc(a1-3)]GlcNAc6S
# Outline: as §1
# [29] = molecular target: Neu5Ac(a2-3)Gal6S(b1-4)GlcNAc
# Outline: as §1
# [30] = molecular target: Neu5Ac(a2-3)Gal6S(b1-4)[Fuc(a1-3)]GlcNAc
# Outline: as §1
# [31] = molecular target: Neu5Ac(a2-3)GalNAc
# Outline: as §1
# [32] = molecular target: Neu5Ac(a2-3)GalNAc(b1-4)GlcNAc
# Outline: as §1
# [33] = molecular target: Neu5Ac(a2-3)[GalNAc(b1-4)]Gal(b1-4)Glc
# Outline: as §1
# [34] = molecular target: Neu5Ac(a2-3)[GalNAc(b1-4)]Gal(b1-4)GlcNAc
# Outline: as §1
# [35] = molecular target: Neu5Ac(a2-3)[Neu5Ac(a2-6)]GalNAc
# Outline: as §1
# [36] = molecular target: Neu5Ac(a2-6)Gal
# Outline: as §1
# [37] = molecular target: Neu5Ac(a2-6)Gal(b1-4)Glc
# Outline: as §1
# [38] = molecular target: Neu5Ac(a2-6)Gal(b1-4)GlcNAc
# Outline: as §1
# [39] = molecular target: Neu5Ac(a2-6)Gal(b1-4)GlcNAc(b1-2)Man(a1-3)[Neu5Ac(a2-6)Gal(b1-4)GlcNAc(b1-2)Man(a1-6)]Man(b1-4)GlcNAc(b1-4)GlcNAc
# Outline: as §1
# [40] = molecular target: Neu5Ac(a2-6)Gal(b1-4)GlcNAc(b1-3)Gal(b1-4)GlcNAc
# Outline: as §1
# [41] = molecular target: Neu5Ac(a2-6)Gal(b1-4)GlcNAc(b1-3)Gal(b1-4)[Fuc(a1-3)]GlcNAc(b1-3)Gal(b1-4)[Fuc(a1-3)]GlcNAc
# Outline: as §1
# [42] = molecular target: Neu5Ac(a2-6)Gal(b1-4)GlcNAc6S
# Outline: as §1
# [43] = molecular target: Neu5Ac(a2-6)GalNAc
# Outline: as §1
# [44] = molecular target: Neu5Ac(a2-6)GalNAc(b1-4)GlcNAc
# Outline: as §1
# [45] = molecular target: Neu5Ac(a2-8)Neu5Ac
# Outline: as §1
# [46] = molecular target: Neu5Ac(a2-8)Neu5Ac(a2-3)Gal(b1-4)Glc
# Outline: as §1
# [47] = molecular target: Neu5Ac(a2-8)Neu5Ac(a2-3)[GalNAc(b1-4)]Gal(b1-4)Glc
# Outline: as §1
# [48] = molecular target: Neu5Ac(a2-8)Neu5Ac(a2-8)Neu5Ac
# Outline: as §1
# [49] = molecular target: Neu5Ac(a2-8)Neu5Ac(a2-8)Neu5Ac(a2-3)Gal(b1-4)Glc
# Outline: as §1
# [50] = molecular target: Neu5Ac(a2-8)Neu5Ac(a2-8)Neu5Ac(a2-3)[GalNAc(b1-4)]Gal(b1-4)Glc
# Outline: as §1
# [51] = molecular target: Neu5Ac(a2-8)Neu5Ac(a2-8)Neu5Ac(a2-8)Neu5Ac(a2-3)[GalNAc(b1-4)]Gal(b1-4)Glc
# Outline: as §1
# [52] = molecular target: Neu5Ac(b2-6)Gal(b1-4)GlcNAc
# Outline: as §1
# [53] = molecular target: Neu5Ac(b2-6)GalNAc
# Outline: as §1
# [54] = molecular target: Neu5Ac9Ac(a2-6)Gal(b1-4)GlcNAc
# Outline: as §1
# [55] = molecular target: Neu5Gc(a2-3)Gal(b1-3)GlcNAc
# Outline: as §1
# [56] = molecular target: Neu5Gc(a2-3)Gal(b1-3)[Fuc(a1-4)]GlcNAc
# Outline: as §1
# [57] = molecular target: Neu5Gc(a2-3)Gal(b1-4)Glc
# Outline: as §1
# [58] = molecular target: Neu5Gc(a2-3)Gal(b1-4)GlcNAc
# Outline: as §1
# [59] = molecular target: Neu5Gc(a2-3)Gal(b1-4)[Fuc(a1-3)]GlcNAc
# Outline: as §1
# [60] = molecular target: Neu5Gc(a2-6)Gal(b1-4)GlcNAc
# Outline: as §1
# [61] = molecular target: Neu5Gc(a2-6)GalNAc
# Outline: as §1
binder,measurement,setting,value
Fap1 (Streptococcus parasanguis) (protein) KATSKGTEEKQDSVRENLDKMISEAEVLNDMAARKLITLDAEQQLELMKSLVATQSQLEATKNLIGDPNATVADLQIAYTTLGNNTQALGNELIKLNPNGQIYAVLNNTEASRAATLRSTTTGTKTTFTISDFSNGGTQYYWAGGNANNLKNPISSISAVYDSATGKISWTVEYDPTTILKSPALKTLKTYTGIYIDTSSDSKLSTPTNVLIDGAATNPVTNFYGNGSKGIEYVSKGTTKGVTKHTITFDTAFSGRANDLADLEIKMLAATTLSDPHFYEDGSKGNYGRYNGQTAPYVIANDSGTAIGGYQVSGVNADSIPSDTT,glycan array binding signal (z-score),[1],-0.606
same,glycan array binding signal (z-score),[2],-0.682
same,glycan array binding signal (z-score),[3],-0.511
same,glycan array binding signal (z-score),[4],-0.922
same,glycan array binding signal (z-score),[5],-0.606
same,glycan array binding signal (z-score),[6],-0.664
same,glycan array binding signal (z-score),[7],-0.683
same,glycan array binding signal (z-score),[8],-0.786
same,glycan array binding signal (z-score),[9],-0.518
same,glycan array binding signal (z-score),[10],-0.364
same,glycan array binding signal (z-score),[11],-1.03
same,glycan array binding signal (z-score),[12],-0.112
same,glycan array binding signal (z-score),[13],0.579
same,glycan array binding signal (z-score),[14],-0.452
same,glycan array binding signal (z-score),[15],-0.209
same,glycan array binding signal (z-score),[16],-0.442
same,glycan array binding signal (z-score),[17],-0.334
same,glycan array binding signal (z-score),[18],-0.891
same,glycan array binding signal (z-score),[19],-0.877
same,glycan array binding signal (z-score),[20],-0.41
same,glycan array binding signal (z-score),[21],-0.496
same,glycan array binding signal (z-score),[22],-0.71
same,glycan array binding signal (z-score),[23],-0.707
same,glycan array binding signal (z-score),[24],0.242
same,glycan array binding signal (z-score),[25],-0.644
same,glycan array binding signal (z-score),[26],0.435
same,glycan array binding signal (z-score),[27],-0.013
same,glycan array binding signal (z-score),[28],-0.257
same,glycan array binding signal (z-score),[29],0.327
same,glycan array binding signal (z-score),[30],-0.795
same,glycan array binding signal (z-score),[31],-0.853
same,glycan array binding signal (z-score),[32],-0.369
same,glycan array binding signal (z-score),[33],-0.555
same,glycan array binding signal (z-score),[34],-0.662
same,glycan array binding signal (z-score),[35],-0.514
same,glycan array binding signal (z-score),[36],-0.771
same,glycan array binding signal (z-score),[37],-0.161
same,glycan array binding signal (z-score),[38],-0.756
same,glycan array binding signal (z-score),[39],0.052
same,glycan array binding signal (z-score),[40],-0.24
same,glycan array binding signal (z-score),[41],-0.227
same,glycan array binding signal (z-score),[42],1.33
same,glycan array binding signal (z-score),[43],-0.49
same,glycan array binding signal (z-score),[44],-0.646
same,glycan array binding signal (z-score),[45],-0.731
same,glycan array binding signal (z-score),[46],-0.66
same,glycan array binding signal (z-score),[47],-0.585
same,glycan array binding signal (z-score),[48],-0.493
same,glycan array binding signal (z-score),[49],-0.677
same,glycan array binding signal (z-score),[50],-0.898
same,glycan array binding signal (z-score),[51],-0.351
same,glycan array binding signal (z-score),[52],-0.474
same,glycan array binding signal (z-score),[53],-0.746
same,glycan array binding signal (z-score),[54],0.638
same,glycan array binding signal (z-score),[55],-0.57
same,glycan array binding signal (z-score),[56],-0.49
same,glycan array binding signal (z-score),[57],0.477
same,glycan array binding signal (z-score),[58],-0.169
same,glycan array binding signal (z-score),[59],-0.18
same,glycan array binding signal (z-score),[60],0.324
same,glycan array binding signal (z-score),[61],0.46

# An excerpt from further up:
binder,measurement,setting,value
Fap1 (Streptococcus parasanguis) (protein) KATSKGTEEKQDSVRENLDKMISEAEVLNDMAARKLITLDAEQQLELMKSLVATQSQLEATKNLIGDPNATVADLQIAYTTLGNNTQALGNELIKLNPNGQIYAVLNNTEASRAATLRSTTTGTKTTFTISDFSNGGTQYYWAGGNANNLKNPISSISAVYDSATGKISWTVEYDPTTILKSPALKTLKTYTGIYIDTSSDSKLSTPTNVLIDGAATNPVTNFYGNGSKGIEYVSKGTTKGVTKHTITFDTAFSGRANDLADLEIKMLAATTLSDPHFYEDGSKGNYGRYNGQTAPYVIANDSGTAIGGYQVSGVNADSIPSDTT,glycan array binding signal (z-score),[12],-0.112
same,glycan array binding signal (z-score),[13],0.579
same,glycan array binding signal (z-score),[14],-0.452
